The list shows a part of the results.
Key:
Assay in all cases: log2 fold change, soluble protein after heating vs DMSO (PISA); higher = thermal stabilisation; K562 lysate, 10 uM; active = over 0.2 and 3.5 SD of the protein, either way, in both replicates (recomputed)
erlotinib = compound: C#Cc1cccc(Nc2ncnc3cc(OCCOC)c(OCCOC)cc23)c1 [erlotinib]
Method in brief: (§1)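 Values give the log-two fold change in thermal stability against solvent controls, from duplicates. Crude K562 extract at 1 mg/mL protein, made by dounce homogenisation in PBS pH 7.4 with 1 mM MgCl2, was treated with 10 μM compound for 30 min. After 3 min heating across 48°C-58°C, aliquots were pooled, adjusted to 0.5% NP-40 at 4°C and centrifuged at 21,000xg for 90 min. The supernatant was measured by TMTpro 16plex LC-MS/MS with channel sums equalised.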

Chains of the proteins cited; added tags and fusions are not shown. Lines headed by an entry give the natural chain unless they say otherwise; changes in a name come on top.
UniProt O00115: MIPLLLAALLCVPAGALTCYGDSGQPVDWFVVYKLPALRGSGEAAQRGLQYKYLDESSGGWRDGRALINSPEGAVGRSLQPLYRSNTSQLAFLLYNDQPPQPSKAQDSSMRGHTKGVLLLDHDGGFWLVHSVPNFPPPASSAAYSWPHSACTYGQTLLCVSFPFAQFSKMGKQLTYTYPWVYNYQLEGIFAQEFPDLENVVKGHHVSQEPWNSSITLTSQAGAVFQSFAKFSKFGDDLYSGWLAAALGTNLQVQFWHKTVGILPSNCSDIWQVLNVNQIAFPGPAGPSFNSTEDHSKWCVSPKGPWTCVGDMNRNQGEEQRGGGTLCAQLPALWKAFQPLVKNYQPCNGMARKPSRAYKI
UniProt Q8N5I4: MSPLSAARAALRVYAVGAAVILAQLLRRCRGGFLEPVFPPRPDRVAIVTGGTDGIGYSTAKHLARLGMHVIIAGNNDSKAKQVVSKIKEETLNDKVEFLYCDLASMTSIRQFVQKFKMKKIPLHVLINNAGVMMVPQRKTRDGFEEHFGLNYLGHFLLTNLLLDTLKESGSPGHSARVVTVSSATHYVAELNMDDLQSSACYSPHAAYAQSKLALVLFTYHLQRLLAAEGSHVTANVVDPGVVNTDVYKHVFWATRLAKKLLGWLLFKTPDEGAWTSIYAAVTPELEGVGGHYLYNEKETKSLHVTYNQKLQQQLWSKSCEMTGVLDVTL
UniProt Q86XP1: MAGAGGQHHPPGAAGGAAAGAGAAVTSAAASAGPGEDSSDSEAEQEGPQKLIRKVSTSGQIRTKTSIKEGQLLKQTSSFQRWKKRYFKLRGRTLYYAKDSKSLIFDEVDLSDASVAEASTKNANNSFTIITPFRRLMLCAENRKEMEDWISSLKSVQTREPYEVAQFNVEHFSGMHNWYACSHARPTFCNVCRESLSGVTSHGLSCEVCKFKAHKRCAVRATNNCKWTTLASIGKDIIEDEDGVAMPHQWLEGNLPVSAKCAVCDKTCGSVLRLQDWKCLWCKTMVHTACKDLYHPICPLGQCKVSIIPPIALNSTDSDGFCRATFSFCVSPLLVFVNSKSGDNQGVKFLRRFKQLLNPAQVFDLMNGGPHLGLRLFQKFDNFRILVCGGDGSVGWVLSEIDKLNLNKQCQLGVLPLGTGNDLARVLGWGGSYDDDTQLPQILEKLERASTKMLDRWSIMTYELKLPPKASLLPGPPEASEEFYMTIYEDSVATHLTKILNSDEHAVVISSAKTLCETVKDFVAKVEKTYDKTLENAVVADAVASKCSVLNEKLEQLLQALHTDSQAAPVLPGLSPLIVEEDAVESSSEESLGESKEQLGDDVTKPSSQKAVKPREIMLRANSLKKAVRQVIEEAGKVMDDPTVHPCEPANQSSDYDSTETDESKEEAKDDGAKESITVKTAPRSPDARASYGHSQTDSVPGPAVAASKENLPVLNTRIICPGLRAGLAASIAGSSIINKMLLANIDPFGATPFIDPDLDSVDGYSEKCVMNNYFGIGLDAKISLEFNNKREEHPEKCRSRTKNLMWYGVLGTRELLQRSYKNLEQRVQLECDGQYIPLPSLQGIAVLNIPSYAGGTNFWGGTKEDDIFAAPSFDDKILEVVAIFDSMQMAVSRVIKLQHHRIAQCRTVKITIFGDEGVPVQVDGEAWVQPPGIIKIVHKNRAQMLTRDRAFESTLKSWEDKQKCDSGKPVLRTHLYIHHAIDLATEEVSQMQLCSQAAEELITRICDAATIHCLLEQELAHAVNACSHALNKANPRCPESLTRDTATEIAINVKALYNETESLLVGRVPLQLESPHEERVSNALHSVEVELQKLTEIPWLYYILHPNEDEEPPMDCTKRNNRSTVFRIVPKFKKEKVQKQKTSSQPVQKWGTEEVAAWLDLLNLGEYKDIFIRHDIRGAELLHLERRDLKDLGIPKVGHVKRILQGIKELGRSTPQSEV
UniProt Q6UX07: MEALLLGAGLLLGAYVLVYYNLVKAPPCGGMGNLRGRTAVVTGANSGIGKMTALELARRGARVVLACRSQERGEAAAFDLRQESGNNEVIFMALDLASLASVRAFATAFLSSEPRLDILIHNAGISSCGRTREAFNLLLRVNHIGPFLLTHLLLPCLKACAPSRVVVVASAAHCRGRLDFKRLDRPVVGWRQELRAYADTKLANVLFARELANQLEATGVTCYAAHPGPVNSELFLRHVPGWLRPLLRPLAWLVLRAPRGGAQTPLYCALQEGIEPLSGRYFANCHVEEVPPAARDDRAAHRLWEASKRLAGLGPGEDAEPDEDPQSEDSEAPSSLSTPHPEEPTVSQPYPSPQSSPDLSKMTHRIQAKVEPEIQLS
UniProt Q5QJE6: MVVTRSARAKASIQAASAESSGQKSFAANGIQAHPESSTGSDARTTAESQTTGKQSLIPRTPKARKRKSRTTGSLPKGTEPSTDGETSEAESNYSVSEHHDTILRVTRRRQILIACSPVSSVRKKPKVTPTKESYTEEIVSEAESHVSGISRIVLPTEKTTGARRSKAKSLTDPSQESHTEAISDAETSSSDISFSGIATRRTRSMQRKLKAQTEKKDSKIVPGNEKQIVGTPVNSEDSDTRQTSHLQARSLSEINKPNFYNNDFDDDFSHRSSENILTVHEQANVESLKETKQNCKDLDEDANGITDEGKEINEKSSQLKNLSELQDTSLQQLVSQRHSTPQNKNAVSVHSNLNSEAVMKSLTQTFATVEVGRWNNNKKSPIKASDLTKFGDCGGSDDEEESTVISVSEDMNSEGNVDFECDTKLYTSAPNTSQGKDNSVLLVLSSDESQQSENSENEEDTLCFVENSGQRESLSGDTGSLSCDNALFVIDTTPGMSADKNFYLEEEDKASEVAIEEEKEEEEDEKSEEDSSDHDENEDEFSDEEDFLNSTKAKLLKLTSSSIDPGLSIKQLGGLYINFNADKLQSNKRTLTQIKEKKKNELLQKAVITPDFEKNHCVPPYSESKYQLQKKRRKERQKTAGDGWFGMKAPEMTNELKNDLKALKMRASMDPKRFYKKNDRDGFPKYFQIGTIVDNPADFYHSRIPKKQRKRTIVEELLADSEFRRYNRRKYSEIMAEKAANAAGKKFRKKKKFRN
UniProt Q14147: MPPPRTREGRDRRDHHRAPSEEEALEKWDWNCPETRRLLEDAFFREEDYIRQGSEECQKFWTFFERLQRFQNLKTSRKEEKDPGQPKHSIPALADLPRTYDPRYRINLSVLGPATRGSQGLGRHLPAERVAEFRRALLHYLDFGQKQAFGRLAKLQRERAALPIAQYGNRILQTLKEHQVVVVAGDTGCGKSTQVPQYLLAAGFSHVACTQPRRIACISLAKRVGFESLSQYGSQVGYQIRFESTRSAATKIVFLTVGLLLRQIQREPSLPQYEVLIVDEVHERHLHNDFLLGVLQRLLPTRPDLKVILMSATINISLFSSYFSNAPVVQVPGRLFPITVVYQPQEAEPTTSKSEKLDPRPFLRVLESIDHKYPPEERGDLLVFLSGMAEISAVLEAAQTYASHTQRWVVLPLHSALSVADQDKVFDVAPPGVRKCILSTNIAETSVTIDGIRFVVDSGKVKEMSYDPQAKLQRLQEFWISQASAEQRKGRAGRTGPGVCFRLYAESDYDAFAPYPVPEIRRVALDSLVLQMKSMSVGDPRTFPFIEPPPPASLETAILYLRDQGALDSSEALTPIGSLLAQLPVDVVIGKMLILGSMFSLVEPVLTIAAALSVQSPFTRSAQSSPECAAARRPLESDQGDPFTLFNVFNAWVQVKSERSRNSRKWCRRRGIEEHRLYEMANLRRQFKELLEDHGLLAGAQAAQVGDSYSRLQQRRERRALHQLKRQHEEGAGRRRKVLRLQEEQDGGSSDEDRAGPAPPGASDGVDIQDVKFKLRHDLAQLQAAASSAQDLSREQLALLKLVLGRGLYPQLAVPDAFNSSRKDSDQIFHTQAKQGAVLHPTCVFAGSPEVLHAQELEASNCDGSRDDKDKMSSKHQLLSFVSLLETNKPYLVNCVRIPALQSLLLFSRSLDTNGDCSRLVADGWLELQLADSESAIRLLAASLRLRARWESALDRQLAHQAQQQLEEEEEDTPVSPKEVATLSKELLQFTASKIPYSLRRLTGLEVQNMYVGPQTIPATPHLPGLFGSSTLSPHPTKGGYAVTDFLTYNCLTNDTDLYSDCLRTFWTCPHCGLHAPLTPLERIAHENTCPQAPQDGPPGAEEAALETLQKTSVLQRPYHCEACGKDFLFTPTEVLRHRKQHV
UniProt Q9H3H5: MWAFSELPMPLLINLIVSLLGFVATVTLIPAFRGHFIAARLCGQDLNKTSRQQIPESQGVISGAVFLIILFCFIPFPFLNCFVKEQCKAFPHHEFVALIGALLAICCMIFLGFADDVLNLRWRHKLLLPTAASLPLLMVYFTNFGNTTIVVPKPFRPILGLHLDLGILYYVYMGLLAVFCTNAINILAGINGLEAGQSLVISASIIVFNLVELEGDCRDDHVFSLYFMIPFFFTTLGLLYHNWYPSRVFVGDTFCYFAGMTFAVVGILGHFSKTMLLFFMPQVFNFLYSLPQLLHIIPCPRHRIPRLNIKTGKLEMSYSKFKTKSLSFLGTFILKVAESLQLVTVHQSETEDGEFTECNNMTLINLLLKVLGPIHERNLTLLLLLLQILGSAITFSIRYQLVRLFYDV
UniProt Q05193: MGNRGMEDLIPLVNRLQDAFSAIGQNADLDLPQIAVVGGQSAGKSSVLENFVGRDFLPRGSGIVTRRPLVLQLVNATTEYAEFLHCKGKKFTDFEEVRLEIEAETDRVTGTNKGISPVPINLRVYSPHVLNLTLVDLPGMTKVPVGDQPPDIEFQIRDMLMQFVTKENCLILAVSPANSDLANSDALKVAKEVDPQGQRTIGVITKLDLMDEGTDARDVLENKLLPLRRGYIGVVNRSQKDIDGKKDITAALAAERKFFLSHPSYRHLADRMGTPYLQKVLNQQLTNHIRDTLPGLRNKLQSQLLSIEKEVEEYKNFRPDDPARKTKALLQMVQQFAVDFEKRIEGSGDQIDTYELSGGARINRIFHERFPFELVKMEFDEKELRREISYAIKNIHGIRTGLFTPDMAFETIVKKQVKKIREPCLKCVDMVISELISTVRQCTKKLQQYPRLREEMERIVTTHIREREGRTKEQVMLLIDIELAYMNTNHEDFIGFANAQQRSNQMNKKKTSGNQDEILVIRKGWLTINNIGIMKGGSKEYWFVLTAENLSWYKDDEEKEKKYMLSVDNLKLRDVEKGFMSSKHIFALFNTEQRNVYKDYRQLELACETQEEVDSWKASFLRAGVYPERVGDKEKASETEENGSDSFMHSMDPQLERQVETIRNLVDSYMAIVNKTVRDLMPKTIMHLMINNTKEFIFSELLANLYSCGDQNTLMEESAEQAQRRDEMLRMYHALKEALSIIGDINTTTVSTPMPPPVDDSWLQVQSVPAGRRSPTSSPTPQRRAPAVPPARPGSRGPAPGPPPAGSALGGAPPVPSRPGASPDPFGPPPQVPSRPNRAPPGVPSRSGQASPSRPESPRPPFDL
UniProt Q15398: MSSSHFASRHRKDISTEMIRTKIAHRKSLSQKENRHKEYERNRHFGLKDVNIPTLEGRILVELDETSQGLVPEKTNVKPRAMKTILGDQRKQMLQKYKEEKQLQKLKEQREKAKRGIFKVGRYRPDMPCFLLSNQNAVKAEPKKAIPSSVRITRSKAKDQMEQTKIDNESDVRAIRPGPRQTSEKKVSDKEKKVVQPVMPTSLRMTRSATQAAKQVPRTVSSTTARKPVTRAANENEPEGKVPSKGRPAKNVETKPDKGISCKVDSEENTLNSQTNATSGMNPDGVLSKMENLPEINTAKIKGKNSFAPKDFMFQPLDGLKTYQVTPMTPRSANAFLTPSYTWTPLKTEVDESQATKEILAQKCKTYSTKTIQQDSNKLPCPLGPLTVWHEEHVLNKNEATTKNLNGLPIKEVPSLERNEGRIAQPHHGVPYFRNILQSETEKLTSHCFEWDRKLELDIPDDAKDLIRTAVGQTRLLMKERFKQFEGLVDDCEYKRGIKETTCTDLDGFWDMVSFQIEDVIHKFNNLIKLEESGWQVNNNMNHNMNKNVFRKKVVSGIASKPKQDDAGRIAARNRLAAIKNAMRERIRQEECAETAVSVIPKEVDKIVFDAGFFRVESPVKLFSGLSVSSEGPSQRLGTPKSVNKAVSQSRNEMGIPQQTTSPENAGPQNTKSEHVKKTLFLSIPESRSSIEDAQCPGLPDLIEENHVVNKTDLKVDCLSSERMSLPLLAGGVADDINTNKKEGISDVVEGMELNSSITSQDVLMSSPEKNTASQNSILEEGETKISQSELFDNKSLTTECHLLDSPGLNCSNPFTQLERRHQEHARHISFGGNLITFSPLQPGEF

[1] = compound: C/C(=N\NC(=O)C1=CC(=CC=C1)S(=O)(=O)N2CCOCC2)/C3=C(C=CC(=C3)Cl)O
Method in brief: as §1

[2] = compound: C1=CC(=CC=C1C2=NC3=C(N2)C=C(C=C3)C(=O)N)OC4=CC=C(C=C4)Cl
Method in brief: as §1

[3] = compound: C1=CC2=C(C=CC(=C2)/C=C\3/C(=O)NC(=NCC4=CC=CS4)S3)N=C1
Method in brief: as §1

[4] = compound: C1=CC=C(C=C1)C2=NC(=C(N2)C3=CC=NC=C3)C4=CC(=C(C=C4)Cl)O
Method in brief: as §1

[5] = compound: C1=CC=C2C(=C1)C3=NNC4=CC=CC(=C43)C2=O
Method in brief: as §1

[6] = compound: C1CCN(C1)C(=O)NC2=CC=CC(=C2)NC3=NC=C(C(=N3)NCCC4=CN=CN4)Br
Method in brief: as §1

[7] = compound: C1CN(CCC1(CC2=CC=C(C=C2)Cl)N)C3=NC=NC4=C3C=CN4
Method in brief: as §1

IRAK-1-4 Inhibitor I = compound: C1COCCN1CCN2C3=CC=CC=C3N=C2NC(=O)C4=CC(=CC=C4)[N+](=O)[O-] [IRAK-1-4 Inhibitor I]
Method in brief: as §1

ralimetinib = compound: CC(C)(C)Cn1c(N)nc2ccc(-c3[nH]c(C(C)(C)C)nc3-c3ccc(F)cc3)nc21 [ralimetinib]
Method in brief: as §1

[8] = compound: CC(C)(O)CC(=O)NCCn1ccc2ncnc(Nc3ccc(Oc4cccc(C(F)(F)F)c4)c(Cl)c3)c21
Method in brief: as §1

[9] = compound: CC(C)C1=C2N=C(C=C(N2N=C1)NCC3=CC=CC=C3)NCCCCCCN
Method in brief: as §1

[10] = compound: CC1=C(C(CC(=O)N1)C2=CC=C(C=C2)C(F)(F)F)C(=O)NC3=C(C=C4C(=C3)C=NN4)F
Method in brief: as §1

[11] = compound: CC1=C(C2=C(C=C1)C(=O)C3=CC=CC=C3N2CCCN)C
Method in brief: as §1

[12] = compound: CC1=C(C=C(C=C1)NC(=O)C2=CC(=CC=C2)C(C)(C)C#N)NC3=CC4=C(C=C3)N=CN(C4=O)C
Method in brief: as §1

[13] = compound: CC1=C(C=C(C=C1)NC(=O)C2=CC(=CC=C2)N(C)C)NC(=O)C3=CC=C(C=C3)O
Method in brief: as §1

[14] = compound: C1=CC2=NC=CN=C2C=C1/C=C/3\C(=O)NC(=O)S3
Method in brief: as §1

ibrutinib = compound: C=CC(=O)N1CCC[C@@H](n2nc(-c3ccc(Oc4ccccc4)cc3)c3c(N)ncnc32)C1 [ibrutinib]
Method in brief: as §1

[15] = compound: CC(=O)c1cnc2ccc(-c3cc(Cl)c(O)c(Cl)c3)nc2c1N[C@H]1CC[C@H](CN(C)C)CC1
Method in brief: as §1

[16] = compound: CC1=CC=C(C=C1)SC2=C3C=C(SC3=CN=C2)C(=O)N
Method in brief: as §1

Measured: log2 fold change

DNA2 (UniProt P51530)
inactive: erlotinib -0.019 | [1] 0.071 | [2] -0.054 | [3] -0.163 | [4] -0.032 | [5] 0.044 | [6] 0.027 | [7] 0.077 | IRAK-1-4 Inhibitor I -0.033 | ralimetinib 0.016 | [8] 0.029 | [9] -0.06 | [10] -0.007 | [11] 0.002 | [12] -0.02 | [13] 0.001

DNASE2 (UniProt O00115)
inactive: erlotinib -0.004 | [1] 0.053 | [2] -0.031 | [3] 0.004 | [14] -0.007 | [4] -0.038 | [5] 0.049 | [6] 0.025 | [7] -0.016 | IRAK-1-4 Inhibitor I -0.023 | ibrutinib 0.088 | [15] -0.035 | ralimetinib 0.003 | [8] 0.001 | [9] -0.001 | [10] -0.035 | [11] -0.021 | [12] -0.025 | [13] -0.009 | [16] -0.012

DHRSX (UniProt Q8N5I4)
inactive: erlotinib 0.297 | [1] -0.141 | [2] 0.099 | [3] -0.039 | [4] 0.151 | [5] 0.04 | IRAK-1-4 Inhibitor I 0.071 | ralimetinib -0.073 | [8] -0.122 | [9] -0.064 | [11] -0.066 | [13] -0.049

DGKH (UniProt Q86XP1)
inactive: erlotinib -0.063 | [1] -0.055 | [2] 0.01 | [3] -0.248 | [14] 0.132 | [4] -0.035 | [5] -0.137 | [6] -0.06 | [7] -0.003 | IRAK-1-4 Inhibitor I 0.11 | ibrutinib 0.039 | ralimetinib -0.028 | [8] -0.467 | [9] 0.01 | [10] 0.062 | [11] 0.096 | [12] -0.027 | [13] -0.149

DNAH5 (UniProt Q8TE73)
inactive: erlotinib -0.006 | [1] -0.008 | [2] 0 | [3] -0.024 | [14] 0.015 | [4] 0.004 | [5] -0.056 | IRAK-1-4 Inhibitor I -0.015 | ibrutinib -0.064 | [15] -0.009 | ralimetinib -0.045 | [8] -0.138 | [9] 0.076 | [10] 0.062 | [11] 0.014 | [13] 0.019 | [16] 0.086

DHRS13 (UniProt Q6UX07)
inactive: erlotinib 0.227 | [2] -0.074 | [14] -0.142 | [4] 0.133 | IRAK-1-4 Inhibitor I -0.162 | ibrutinib -0.106 | [15] -0.003 | ralimetinib 0.094 | [8] -0.111 | [9] -0.073 | [10] 0.082 | [11] -0.292 | [12] 0.03 | [13] -0.009 | [16] 0.111

DIPK2A (UniProt Q8NDZ4)
inactive: erlotinib -0.091 | [1] 0.03 | [2] -0.209 | [3] 0 | [14] -0.161 | [4] 0.059 | [5] 0.194 | [6] -0.26 | [7] -0.287 | IRAK-1-4 Inhibitor I -0.035 | ibrutinib 0.061 | [15] 0.035 | ralimetinib 0.182 | [8] 0.055 | [9] -0.071 | [11] -0.009 | [12] -0.002 | [13] -0.027 | [16] 0.069

DNTTIP2 (UniProt Q5QJE6)
inactive: erlotinib -0.028 | [1] -0.31 | [2] 0.06 | [3] -0.189 | [14] -0.108 | [5] 0.07 | [6] -0.008 | [7] -0.024 | ibrutinib 0.149 | [15] -0.033 | [9] 0.023 | [10] 0.273 | [11] -0.003 | [12] 0.03 | [16] 0.053

DHX34 (UniProt Q14147)
inactive: erlotinib 0.005 | [1] -0.05 | [2] 0.042 | [3] 0.037 | [14] 0.029 | [4] 0.062 | [5] -0.071 | [6] 0.013 | [7] 0.041 | IRAK-1-4 Inhibitor I 0.088 | ibrutinib 0.08 | ralimetinib -0.054 | [8] -0.081 | [9] 0.015 | [10] 0.048 | [11] 0.058 | [12] 0.028 | [13] 0.022

DPAGT1 (UniProt Q9H3H5)
inactive: erlotinib -0.043 | [2] 0.059 | [14] 0.043 | [4] -0.082 | IRAK-1-4 Inhibitor I -0.027 | ibrutinib -0.057 | [15] -0.004 | ralimetinib 0.147 | [8] -0.027 | [9] -0.075 | [10] 0 | [12] -0.034 | [13] -0.035 | [16] -0.043

DGKQ (UniProt P52824)
inactive: erlotinib 0.083 | [1] -0.194 | [2] 0.095 | [3] -0.054 | [4] -0.187 | [5] -0.204 | [6] -0.06 | [7] 0.22 | IRAK-1-4 Inhibitor I -0.23 | [15] -0.002 | ralimetinib 0.046 | [8] -0.049 | [9] -0.258 | [10] -0.056 | [11] 0.053 | [13] 0.066 | [16] -0.009

Copied from above (two entries):
DNASE2 (UniProt O00115)
inactive: erlotinib -0.004 | [1] 0.053 | [2] -0.031 | [3] 0.004 | [14] -0.007 | [4] -0.038 | [5] 0.049 | [6] 0.025 | [7] -0.016 | IRAK-1-4 Inhibitor I -0.023 | ibrutinib 0.088 | [15] -0.035 | ralimetinib 0.003 | [8] 0.001 | [9] -0.001 | [10] -0.035 | [11] -0.021 | [12] -0.025 | [13] -0.009 | [16] -0.012

DHRSX (UniProt Q8N5I4)
inactive: erlotinib 0.297 | [1] -0.141 | [2] 0.099 | [3] -0.039 | [4] 0.151 | [5] 0.04 | IRAK-1-4 Inhibitor I 0.071 | ralimetinib -0.073 | [8] -0.122 | [9] -0.064 | [11] -0.066 | [13] -0.049

Additional results follow.

DNM1 (UniProt Q05193)
inactive: erlotinib -0.017 | [2] -0.087 | [14] -0.123 | [4] 0.14 | IRAK-1-4 Inhibitor I 0.014 | ibrutinib 0.106 | [15] 0.035 | ralimetinib 0.021 | [8] -0.008 | [9] -0.039 | [10] 0.094 | [11] -0.039 | [12] -0.046 | [13] 0.144 | [16] 0.046

DNAJB1 (UniProt M0R128)
inactive: erlotinib -0.072 | [2] 0.111 | [14] -0.052 | [4] 0.125 | IRAK-1-4 Inhibitor I 0.098 | ibrutinib -0.053 | [15] -0.104 | ralimetinib -0.227 | [8] -0.25 | [9] 0.149 | [10] -0.127 | [13] 0.115 | [16] 0.018

DHX33 (UniProt Q9H6R0)
inactive: [15] 0.002 | [11] -0.082 | [16] -0.051

DNAJB14 (UniProt H7C494)
inactive: [4] -0.034 | IRAK-1-4 Inhibitor I -0.05 | ralimetinib 0.087 | [8] -0.192 | [12] -0.035 | [13] 0.012

DLGAP5 isoform 3 (UniProt Q15398)
inactive: [14] -0.009 | ibrutinib -0.076 | [11] 0.233

DNPEP (UniProt C9JBE1)
inactive: [1] 0.011 | [3] -0.061 | [14] -0.02 | [5] -0.206 | [6] -0.003 | [7] -0.079 | ibrutinib -0.056 | [15] -0.048 | [10] -0.021 | [16] -0.042

From the supplement of paper PMC10849652
